Molecules are shown by their SMILES. Some of the results follow. Cut-off read from the data, not from the text of the source: active = 2 or more and inactive = the rest. Repeats in this data set agree poorly, so a single value says little.

The subject of the assay is Lgr5 (MarsCy1-Lgr5-EGFP, U2OS). The experiment in a line: cell-surface Lgr5 expression (SCi1 fluorescence, background-subtracted) relative to WT DMSO (fold of DMSO control); higher = more Lgr5 at the plasma membrane. The settings on record: U2OS MarsCy1-Lgr5-EGFP stable; treatment time: overnight; library: ActiProbe-5K (TimTec); 25 µM.
Consider `N#CC1=C(N)OC2=C(C(=O)CCC2)C12CCC1(CC2)OCCO1`, for which the “cell-surface Lgr5 expression” value was inactive: 1.09.
As to `NC(=O)C1(N2CCCCC2)CCCCC1`, the “cell-surface Lgr5 expression” value is inactive: 1.04.
With `Brc1ccc(-c2cnc3ncccc3n2)cc1`, the “cell-surface Lgr5 expression” value was inactive: 0.869.
As for `CSc1nc(N)nc2sc3c(O)cc(=O)[nH]c3c12`, the “cell-surface Lgr5 expression” value is inactive: 0.973.
The result for `O=C(O)CCCCCN1C(=O)CSC1=S` reads inactive: 1.17; that for `O=C(O)/C=C\C=C/c1ccco1`, inactive: 1.22.
In the case of `Brc1ccc(/N=N/c2ccc(Br)cn2)nc1`, the “cell-surface Lgr5 expression” value is inactive: 1.38.
The result for `CS/C(=N\C#N)Nc1ccc(Cl)cc1` reads inactive: 1.09; that for `[O-]c1cc(O)c2sc3nc(-c4cccs4)cc(-c4cccs4)c3c2n1`, inactive: 1.3; that for `O=C(N1CCN(S(=O)(=O)c2ccc(Br)s2)CC1)C12CC3CC(CC(C3)C1)C2`, inactive: 0.932.
The same measure for `O=S(=O)(NCCC1CCCC1)c1cccc2c(S(=O)(=O)NCCC3CCCC3)cccc12`: inactive: 1.13; for `O=C1c2ccccc2C(=O)N1CSc1nc2ccccc2s1`: inactive: 1.17; for `Fc1ccc(-c2csc(S)n2)cc1`: active: 2.38.
The result for `O=[N+]([O-])c1ccc(Sc2cccs2)c([N+](=O)[O-])c1` reads inactive: 1.25; that for `COC(=O)c1ccn(Cn2cc(Br)cn2)n1`, inactive: 1.16; that for `O=[N+]([O-])c1cccc(NC2OC(CO)C(O)C2O)c1` (centres undefined), inactive: 1.07.
Take `CCN(CC)c1ccc(C2NN=C(c3ccc(C)cc3)S2)cc1` (centres undefined): the “cell-surface Lgr5 expression” value was inactive: 0.948.
The result for `CC(C)(C)c1ccc(S(=O)(=O)C(C)(C)C)cc1` reads inactive: 1.2; that for `Cc1cc2c(c(=O)o1)C(c1cccs1)C(C#N)=C(N)O2` (centres undefined), inactive: 1.31.
The same measure for `O=S(=O)(Nc1cc(Cl)ccc1Cl)c1cccs1`: inactive: 1.15; for `O=S(=O)(Nc1cc(Cl)cc(Cl)c1)c1cccs1`: inactive: 1.1; for `Cc1sc2nc(C)n(NC(N)=O)c(=O)c2c1C`: inactive: 1.07.
The same measure for `O=C1C=C/C(=C\c2ccc(Br)o2)O1`: inactive: 1.53; for `O=C(C1CC1)N1CCc2ccccc21`: inactive: 0.798; for `Fc1ccc(/C=N/n2c(S)nnc2-c2cccnc2)cc1`: inactive: 1.06.
Take `Cc1occc1C(=O)NNC(=O)C(F)(F)F`: the “cell-surface Lgr5 expression” value was inactive: 1.1.
For `O=C1OCc2c1[nH]c(=O)[nH]c2=O`, the “cell-surface Lgr5 expression” value is inactive: 1.29.
The result for `COc1cc(S(=O)(=O)NCCOC23CC4CC(CC(C4)C2)C3)c(OC)cc1Cl` reads inactive: 1.1; that for `O=[N+]([O-])c1cc(/C=N\c2ccc(S(=O)(=O)NC3NC=CS3)cc2)c2c(c1)COCO2` (centres undefined), inactive: 0.98; that for `N=c1oc2c(Br)cc(Br)cc2cc1-c1nc2ccccc2[nH]1`, inactive: 0.896.
`O=C1N=C(N2CCOCC2)S/C1=C\C1=Cc2ccccc2OC1`: the “cell-surface Lgr5 expression” value was inactive: 1.23.
With `Sc1nc2ccccc2n1-c1ccccc1`, the “cell-surface Lgr5 expression” value was inactive: 1.4.
The same measure for `Sc1nnc(-c2ccc(Cl)cc2Cl)o1`: inactive: 1.25; for `COC1CCC(OC)CC1` (centres undefined): inactive: 1.18.
The result for `COc1cc([N+](=O)[O-])c(OC)cc1Br` reads inactive: 1.53; that for `O=C(OCCN(CC12CC3CC(CC(C3)C1)C2)C(=O)c1ccco1)c1ccco1`, inactive: 1.21.
The same measure for `O=c1[nH]cnc2c1ncn2C1O[C@@H](CO)[C@H](O)[C@@H]1O` (some centres undefined): inactive: 1.31; for `Cc1n[nH]c(N)c1Br`: inactive: 1.18.
On to `O=C(CCCCCCC(=O)N/N=C/c1cc(Br)cs1)N/N=C\c1cc(Br)cs1`, for which the “cell-surface Lgr5 expression” value was inactive: 1.15.
`C1CCN(c2nc3nonc3nc2N2CCCC2)C1`: the “cell-surface Lgr5 expression” value was inactive: 1.21.
For the molecule `NNC(=S)Nc1ccccc1`, the “cell-surface Lgr5 expression” value was inactive: 0.943.
The result for `O=c1cn[nH]c(=S)n1/N=C/c1cc(Br)c(O)c(Br)c1` reads inactive: 1.23; that for `CCCCSCC(O)CN1C(=O)NC(C)(C)C1=O` (centres undefined), inactive: 1.13.
The same measure for `CC(C(=O)NN)n1cnc2sc3c(c2c1=O)CCCC3` (centres undefined): inactive: 1.11; for `CC1=NN(C(=S)c2ccc(C)cc2)C(C)(O)C1CC(C)C` (centres undefined): inactive: 0.987; for `CN(C)CCCN1C(=O)C(O)=C(C(=O)c2ccco2)C1c1ccco1` (centres undefined): inactive: 1.17.
The same measure for `OCc1cc(C(F)(F)F)cc(C(F)(F)F)c1`: inactive: 1.13; for `Cc1ccc2c(c1)C1OCCC1C(c1ccncc1)N2` (centres undefined): inactive: 1.39.
`Cc1cc2c(c(=O)[nH]1)C(=O)O/C2=C/c1ccc(C)o1`: the “cell-surface Lgr5 expression” value was inactive: 1.29.
As to `CC1=C(C(=O)OC(C)C)C(c2cccs2)C2=C(CC(C)(C)CC2=O)N1` (centres undefined), the “cell-surface Lgr5 expression” value was inactive: 1.2.
`N#Cc1sc2nc3c(cc2c1N)CCCCCC3`: the “cell-surface Lgr5 expression” value was inactive: 1.55.
As for `CCCCCC(C)(C)NC(=S)N(C1CCCCC1)C1CCCCC1`, the “cell-surface Lgr5 expression” value is inactive: 1.2.
Take `CC(=O)c1c(C)nc(C)nc1NC(=O)C(C)C`: the “cell-surface Lgr5 expression” value was inactive: 0.995.
The same measure for `N#CC12CC1(C#N)C1(N=C2N)OCCS1` (centres undefined): inactive: 1.13.
